{"source": "patent US12458703B2", "about": "“Responsive elastic polymers and methods of making and using same” (Purdue Research Foundation, priority 2016, dated 2025)", "origin": "cited, not measured here", "conditions": "reference line in FIG. 15, reference [24]; cited from earlier work", "data": [{"smiles": "CN1CC[C@]23c4c5ccc(O)c4O[C@H]2[C@@H](O)C=C[C@H]3[C@H]1C5", "note": "[morphine]", "values": [{"measurement": "therapeutic plasma concentration", "value": 10, "unit": "ng/mL"}]}]}
